Assay results reported in PubChem BioAssay AID587 (National Center for Advancing Translational Sciences (NCATS), 2007).
In all, about 59,000 compounds went through this assay and about 35 (0.06%) were called active. This list was built around the results that the source calls inconclusive (neither active nor inactive); the mix of calls is not that of the screen. Cut-off read from the data, not from the text of the source: active = max dye-equivalent concentration above about 10 nM; inconclusive = between about 1.1 nM and that limit; inactive = weaker than that.

test: qHTS Assay for Spectroscopic Profiling in Texas Red Spectral Region; conditions: Compound fluorescence, Texas Red channel, 547/618 nm; stronger effect = higher value
Procedure, shortened: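 Texas Red-region profiling: compounds in 100 mM Tris pH 8.0 were read at 547/618 nm after 15 min at room temperature. Intensities were normalized against a six-point Texas Red standard series to give dye-equivalent concentration.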

SMILES | max dye-equivalent concentration
O=C(O)CNC(=O)c1ccc([As](=O)(O)O)cc1 | inactive
CCOC(=O)C1=C(N)Oc2c(c(=O)oc3ccccc23)C12C(=O)N(C)c1ccccc12 (configuration not stated) | inconclusive: 1.2 nM
NC(CCl)=N[C@H]1CN2CCC1CC2 | inconclusive: 1.1 nM
C=CCn1c(O)c(C(C)=Nc2ccc(NC(C)=O)cc2)c(=O)[nH]c1=O | inconclusive: 1.2 nM
CCOC(=O)c1cccc([P+](=O)O)c1 | inconclusive: 2.1 nM
C=CCN1C[C@@H](C)N([C@H](c2ccc(C(=O)N(CC)CC)cc2)c2cccc(OC)c2)C[C@H]1C | inconclusive: 1.5 nM
CC(=NCC1CCCO1)c1c(O)n(-c2ccc(Cl)cc2)c(=O)[nH]c1=O (configuration not stated) | inconclusive: 1.8 nM
NC(N)=Nc1ccc2[nH]c3c(c2c1)C[C@]1(O)[C@@H]2Cc4ccc(O)c5c4[C@]1(CCN2CC1CC1)[C@H]3O5 | inactive
CC1=C[C@@H]2c3cccc4[nH]cc(c34)C[C@H]2N(C)C1 | inactive
COc1ccc(C[C@@H]2NC[C@H](O)[C@H]2OC(C)=O)cc1 | inactive
O=c1[nH]c2ccccc2n1CCCN1CCC(n2c(=O)[nH]c3cc(Cl)ccc32)CC1 | inconclusive: 1.4 nM
CCOC(=O)c1ccc(NC(=O)c2c(O)[nH]c(=O)[nH]c2=O)cc1 | inconclusive: 1.4 nM
COc1ccc(Cn2c(N)c(C(=O)NCc3ccco3)c3nc4ccccc4nc32)cc1 | inconclusive: 1.4 nM
c1ccc2c(c1)OC[C@@H](C1=NCCN1)O2 | inconclusive: 1.7 nM
CC(C)CCNC(=O)c1c(N)n(CC2CCCO2)c2nc3ccccc3nc12 (configuration not stated) | inconclusive: 1.2 nM
C=CCN1CC[C@]23c4c5ccc(O)c4O[C@@H]2/C(=N/NC(=O)c2ccccc2)CC[C@@]3(O)[C@H]1C5 | inconclusive: 1.9 nM
Cc1nc2cc(C(=O)N3CCC4(CC3)OCCO4)ccc2n1-c1cccc(F)c1 | inconclusive: 1.3 nM
COc1ccc(C(=O)N2CCCC2=O)cc1 | inconclusive: 2.4 nM
CC(C)(C)OC(=O)c1c(N)n(Cc2ccco2)c2nc3ccccc3nc12 | inactive
Cc1[nH]c2ccc(O)cc2c1CCN | inconclusive: 1.1 nM
C[C@H]1CC[C@@H]2[C@@H](C)C(=O)O[C@H]3O[C@@]4(C)CC[C@@H]1[C@]32OO4 | inactive
N[C@H](C(=O)O)c1cc(=O)[nH]o1 | inconclusive: 1.7 nM
C[N+]1(C)CCc2cc3c(cc2[C@@H]1[C@@H]1OC(=O)c2c1ccc1c2OCO1)OCO3 | inconclusive: 1.1 nM
Cn1cccc1CNCCc1ccccc1F | inconclusive: 1.2 nM
CCOC(=O)C1=C(N)OC2=C(C(=O)CCC2)C12C(=O)N1c3c(ccc(C)c32)C(C)=CC1(C)C (configuration not stated) | inconclusive: 1.4 nM
COc1cc(C=C(C#N)C#N)cc(O)c1O | inactive

SMILES | max dye-equivalent concentration
C[C@@H]1O[C@H]1P(=O)(O)O | inactive
C[C@@H]1O[C@H](O[C@@H]2C=C3CC[C@H]4[C@@H](CC[C@]5(C)[C@@H](c6ccc(=O)oc6)CC[C@]45O)[C@@]3(C)CC2)[C@@H](O)[C@H](O)[C@@H]1O | inconclusive: 1.2 nM
CC(=O)c1c(C)n(CCCOC(C)C)c2ccc(O)cc12 | inconclusive: 1.3 nM
CCC1(CC)C(=O)NC(=Nc2cccc(C(F)(F)F)c2)NC1=O | inconclusive: 1.1 nM
c1cncc(CNC2=NCCC2)c1 | inconclusive: 1.1 nM
CC(=O)C1C(=O)NC23CCCCC2C1c1ccccc1O3 (configuration not stated) | inconclusive: 1.5 nM
C[C@@H]1Cc2cc3c(cc2C(c2ccc(N)cc2)=NN1)OCO3 | inconclusive: 1.5 nM
CCN1C[C@@]2(COC)[C@H]3[C@@H](OC)[C@H]4C1[C@@]3([C@H](OC)C[C@@H]2O)[C@H]1C[C@@]2(O)[C@@H](OC(=O)c3ccccc3)[C@@H]1[C@@]4(OC(C)=O)[C@H](O)[C@@H]2OC | inconclusive: 1.5 nM
O=C(Cc1ccccc1)N1CCN(Cc2c[nH]c3ccccc23)CC1 | inconclusive: 1.2 nM
Cc1c(C(=O)N2CCC3(CC2)OCCO3)oc2ccccc12 | inconclusive: 1.2 nM
CC(C)[C@@]1(NC(=O)[C@@H]2C[C@@H]3c4cccc5[nH]cc(c45)C[C@H]3N(C)C2)O[C@@]2(O)[C@@H]3CCCN3C(=O)[C@H](Cc3ccccc3)N2C1=O | inactive
COc1ccc2c(c1O)-c1cccc3c1[C@H](C2)N(C)CC3 | inconclusive: 1.1 nM
CC(=NCc1ccco1)c1c(O)n(C)c(=O)n(C)c1=O | inconclusive: 1.4 nM
CC(=O)[C@@H]1CC[C@@H]2[C@H]3CC[C@H]4C[C@@H](O)CC[C@]4(C)[C@@H]3C(=O)C[C@]21C | inactive
O=C1OCCC1NC1=NCCC1 (configuration not stated) | inconclusive: 1.1 nM
C/C=C1\C[C@H](C)[C@](O)(CO)C(=O)OCC2=CCN3CC[C@@H](OC1=O)[C@@H]23 | inactive
Oc1cc2c(cc1CN1CCN(c3ccccc3)CC1)CCC2 | inconclusive: 1.1 nM
CC[C@@]1(O)C(=O)OCc2c1cc1n(c2=O)Cc2cc3ccccc3nc2-1 | inconclusive: 1.6 nM
C[C@]1(C(=O)O)[C@@H]2CC[C@@H](O2)[C@@]1(C)C(=O)O | inactive
CC1CC2(O)c3no[n+]([O-])c3CCC2N1O (configuration not stated) | inconclusive: 1.2 nM
CC(C)C[C@H]1C(=O)N2CCC[C@@H]2[C@@]2(O)O[C@](NC(=O)[C@@H]3C=C4c5cccc6[nH]cc(c56)C[C@@H]4N(C)C3)(C(C)C)C(=O)N12 | inactive
CCC(=O)O[C@@](Cc1ccccc1)(c1ccccc1)[C@@H](C)CN(C)C | inconclusive: 1.4 nM
Clc1cccc(N2CCNCC2)c1 | inconclusive: 1.2 nM
COC(=O)c1c(C)ccc2c(O)c3c(cc12)C(=O)c1c2c(cc(O)c1C3=O)[C@@]1(C)O[C@@](C)(O2)[C@@H](O)[C@H](N(C)C)[C@H]1O | inactive
CC(C)n1cc2c3c(cccc31)[C@@H]1C[C@H](C(=O)O[C@@H](C)[C@H](C)O)CN(C)[C@H]1C2 | inactive
O=C(O)/C=C\c1ccc[c]([Sb](=[O])([OH])[OH])c1 | inactive

Looked up by structure from the entries so far (four):
SMILES | max dye-equivalent concentration
COC(=O)c1c(C)ccc2c(O)c3c(cc12)C(=O)c1c2c(cc(O)c1C3=O)[C@@]1(C)O[C@@](C)(O2)[C@@H](O)[C@H](N(C)C)[C@H]1O | inactive
C[C@@H]1O[C@H](O[C@@H]2C=C3CC[C@H]4[C@@H](CC[C@]5(C)[C@@H](c6ccc(=O)oc6)CC[C@]45O)[C@@]3(C)CC2)[C@@H](O)[C@H](O)[C@@H]1O | inconclusive: 1.2 nM
c1cncc(CNC2=NCCC2)c1 | inconclusive: 1.1 nM
CC(=O)[C@@H]1CC[C@@H]2[C@H]3CC[C@H]4C[C@@H](O)CC[C@]4(C)[C@@H]3C(=O)C[C@]21C | inactive

The results go on:

SMILES | max dye-equivalent concentration
CNc1ccc2oc(C[C@@H]3O[C@@]4(CC[C@H]3C)O[C@@H]([C@@H](C)C(=O)c3ccc[nH]3)[C@@H](C)C[C@H]4C)nc2c1C(=O)O | inactive
Cc1ncc(CNC(=O)N(CCCl)N=O)c(N)n1 | inconclusive: 1.2 nM
O=C(Cn1ncc2c3ccccc3n(Cc3ccc(F)cc3)c2c1=O)N1CCC2(CC1)OCCO2 | inconclusive: 1.1 nM
O=C(NCc1ccccn1)c1ccccc1Cl | inconclusive: 1.3 nM
O=C(NCC(c1cccnc1)N1CCN(c2ccc(F)cc2)CC1)Oc1ccccc1 (configuration not stated) | inconclusive: 2.6 nM
CN1C(=O)N(C)C(=O)C2(Cc3ccccc3N3CCOCC32)C1=O (configuration not stated) | inconclusive: 1.8 nM
CCC(=NCc1ccc2c(c1)OCO2)c1c(O)n(C2CCCCC2)c(=O)[nH]c1=O | inconclusive: 1.1 nM
Cc1ccc2c(c1)C1CN(C)CCC1N2C(=O)COc1ccc(S(=O)(=O)N2CCOCC2)cc1 (configuration not stated) | inconclusive: 1.8 nM
CCOC(=O)C1=C(C)OC(N)=C(C(=O)OCC)C12C(=O)Nc1ccc(Br)cc12 (configuration not stated) | inconclusive: 1.1 nM
CN1[C@@H]2CC[C@H]1CC(O[C@@H](c1ccccc1)c1ccc(Cl)cc1)C2 (some centres not stated) | inconclusive: 1.4 nM
O=c1[nH]c(=O)n(-c2ccc(F)cc2)c(O)c1C=Nc1ccccc1N1CCCC1 | inactive
Nc1c(C(=O)NCCN2CCOCC2)c2nc3ccccc3nc2n1Cc1ccco1 | inactive
CNC(=O)ON(C(=O)NC)C1N(C)C(=S)SC1(C)C (configuration not stated) | inconclusive: 1.4 nM
Cc1ccc(C)c(CN2CCC(n3nnc4cc(F)ccc43)CC2)c1 | inconclusive: 2.1 nM
C[C@@H]1O[C@H](O[C@H]2C[C@@H](O)[C@]3(CO)[C@H]4[C@H](O)C[C@]5(C)[C@@H](C6=CC(=O)OC6)CC[C@@]5(O)[C@H]4CC[C@]3(O)C2)[C@@H](O)[C@H](O)[C@H]1O | inactive
COc1cc2nc(CN3CC=C(c4ccccc4)CC3)[nH]c(=O)c2cc1OC | inconclusive: 1.4 nM
C[n+]1c(/C=C\c2ccc(O)c3ncccc23)[se]c2ccccc21 | inconclusive: 2.3 nM
Cc1o[nH]c(=O)c1C[C@H](N)C(=O)O | inconclusive: 1.4 nM
CN1C[C@@H](CS(=O)(=O)N(C)C)C[C@H]2c3cccc4c3c(cn4C)C[C@@H]21 | inconclusive: 1.8 nM
CCCCn1c(O)c(C(CC)=Nc2ccc(C(=O)O)cc2)c(=O)[nH]c1=O | inconclusive: 1.7 nM
[O-][n+]1onc2c1CCC1N(O)CCC21O (configuration not stated) | inconclusive: 1.8 nM
CC(C)[C@]1(O)[C@@H](OC(=O)c2ccc[nH]2)[C@]2(O)[C@@]3(C)C[C@@]4(O)O[C@@]5([C@H](O)[C@@H](C)CC[C@]35O)[C@]2(O)[C@]41C | inconclusive: 1.1 nM
O=C(O)Cn1cc(C(=O)c2ccccc2)c2ccccc21 | inconclusive: 1.5 nM
CC[C@@H](CO)NC(=O)[C@@H]1C=C2c3cccc4c3c(cn4C)C[C@H]2N(C)C1 | inactive
CC(C)[C@@]1(NC(=O)[C@@H]2C=C3c4cccc5[nH]cc(c45)C[C@H]3N(C)C2)O[C@@]2(O)[C@@H]3CCCN3C(=O)[C@H](Cc3ccccc3)N2C1=O | inactive
